This is one part of the list.
Compound: Cc1cn(-c2cc(NC(=O)c3ccc(C)c(Nc4nccc(-c5cccnc5)n4)c3)cc(C(F)(F)F)c2)cn1 [nilotinib]
Assay: log2 fold change, soluble protein after heating vs DMSO (PISA); higher = thermal stabilisation; K562 lysate, 10 uM; active = over 0.2 and 3.5 SD of the protein, either way, in both replicates (recomputed)
How it was run: (§1)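 To prepare the extract, K562 pellets were dounce-homogenised in PBS pH 7.4 with 1 mM MgCl2, giving crude material at 1 mg/mL protein. This was treated with 10 μM compound for 30 min, then heated in aliquots for 3 min over 48°C-58°C before pooling and addition of NP-40 to 0.5% at 4°C. Centrifugation at 21,000xg for 90 min left soluble protein in the supernatant, which TMTpro 16plex LC-MS/MS quantified with equalised channel sums. Results are log-two fold changes in thermal stability compared with solvent controls, from duplicates.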

Chains of the proteins cited; added tags and fusions are not shown. Lines headed by an entry give the natural chain unless they say otherwise; changes in a name come on top.
UniProt Q9C0K1: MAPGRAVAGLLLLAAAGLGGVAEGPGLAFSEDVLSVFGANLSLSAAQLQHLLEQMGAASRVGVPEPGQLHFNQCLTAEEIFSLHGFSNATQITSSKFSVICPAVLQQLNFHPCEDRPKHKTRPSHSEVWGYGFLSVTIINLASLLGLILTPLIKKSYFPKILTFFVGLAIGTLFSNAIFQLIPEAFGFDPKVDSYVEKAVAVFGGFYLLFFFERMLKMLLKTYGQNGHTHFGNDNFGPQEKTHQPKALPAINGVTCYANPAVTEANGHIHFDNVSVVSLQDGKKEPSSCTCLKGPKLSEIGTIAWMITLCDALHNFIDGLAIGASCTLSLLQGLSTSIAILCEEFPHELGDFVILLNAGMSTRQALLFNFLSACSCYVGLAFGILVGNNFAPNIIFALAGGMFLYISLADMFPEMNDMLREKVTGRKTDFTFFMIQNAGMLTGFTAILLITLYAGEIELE
UniProt Q9BZJ4: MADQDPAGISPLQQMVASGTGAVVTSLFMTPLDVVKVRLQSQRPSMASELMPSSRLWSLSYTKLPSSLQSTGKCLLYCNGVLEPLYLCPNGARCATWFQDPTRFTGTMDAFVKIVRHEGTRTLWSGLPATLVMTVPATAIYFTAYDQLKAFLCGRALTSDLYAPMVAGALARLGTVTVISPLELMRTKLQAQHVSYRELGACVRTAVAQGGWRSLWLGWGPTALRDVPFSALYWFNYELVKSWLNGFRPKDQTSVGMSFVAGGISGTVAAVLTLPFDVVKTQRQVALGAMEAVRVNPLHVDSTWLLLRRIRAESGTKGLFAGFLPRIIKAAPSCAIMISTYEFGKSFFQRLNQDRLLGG
UniProt P78383: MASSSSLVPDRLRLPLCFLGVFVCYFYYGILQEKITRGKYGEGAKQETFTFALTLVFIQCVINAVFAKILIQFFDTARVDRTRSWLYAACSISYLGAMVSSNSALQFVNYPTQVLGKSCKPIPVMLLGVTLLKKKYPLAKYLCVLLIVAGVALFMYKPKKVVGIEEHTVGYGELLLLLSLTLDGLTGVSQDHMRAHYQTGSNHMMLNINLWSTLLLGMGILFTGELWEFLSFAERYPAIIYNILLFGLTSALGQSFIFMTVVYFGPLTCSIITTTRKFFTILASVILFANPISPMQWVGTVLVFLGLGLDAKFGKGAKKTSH
UniProt Q9Y2D2: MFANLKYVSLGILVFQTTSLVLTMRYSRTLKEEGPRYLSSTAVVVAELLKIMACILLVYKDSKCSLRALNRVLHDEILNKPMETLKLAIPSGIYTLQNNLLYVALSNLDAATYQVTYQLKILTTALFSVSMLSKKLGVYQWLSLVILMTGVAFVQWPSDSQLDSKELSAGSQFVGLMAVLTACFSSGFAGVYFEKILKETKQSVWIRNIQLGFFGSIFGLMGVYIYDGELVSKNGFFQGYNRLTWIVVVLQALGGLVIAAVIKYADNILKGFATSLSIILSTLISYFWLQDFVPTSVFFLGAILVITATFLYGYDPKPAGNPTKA
UniProt P16260: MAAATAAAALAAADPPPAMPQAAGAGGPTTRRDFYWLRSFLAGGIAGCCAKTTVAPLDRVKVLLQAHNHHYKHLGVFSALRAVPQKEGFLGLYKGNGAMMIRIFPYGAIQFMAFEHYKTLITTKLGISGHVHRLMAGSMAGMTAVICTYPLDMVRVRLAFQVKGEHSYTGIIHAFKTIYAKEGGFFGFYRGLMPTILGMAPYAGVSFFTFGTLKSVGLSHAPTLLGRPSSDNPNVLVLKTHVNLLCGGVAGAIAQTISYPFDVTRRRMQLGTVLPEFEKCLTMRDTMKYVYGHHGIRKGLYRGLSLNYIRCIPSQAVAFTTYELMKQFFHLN
UniProt Q99717: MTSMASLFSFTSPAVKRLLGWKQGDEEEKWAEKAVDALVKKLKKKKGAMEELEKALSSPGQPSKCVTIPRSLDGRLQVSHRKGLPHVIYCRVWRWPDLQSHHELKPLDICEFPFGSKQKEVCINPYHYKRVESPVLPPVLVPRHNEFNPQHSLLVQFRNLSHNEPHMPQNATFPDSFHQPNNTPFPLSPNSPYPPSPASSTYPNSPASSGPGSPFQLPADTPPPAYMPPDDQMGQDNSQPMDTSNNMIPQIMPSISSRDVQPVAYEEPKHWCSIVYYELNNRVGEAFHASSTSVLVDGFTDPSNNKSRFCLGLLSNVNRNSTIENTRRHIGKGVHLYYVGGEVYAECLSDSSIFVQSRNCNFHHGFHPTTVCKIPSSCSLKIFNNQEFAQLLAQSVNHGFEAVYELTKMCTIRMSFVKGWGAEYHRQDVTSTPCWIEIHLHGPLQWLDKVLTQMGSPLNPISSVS
UniProt Q9NP59: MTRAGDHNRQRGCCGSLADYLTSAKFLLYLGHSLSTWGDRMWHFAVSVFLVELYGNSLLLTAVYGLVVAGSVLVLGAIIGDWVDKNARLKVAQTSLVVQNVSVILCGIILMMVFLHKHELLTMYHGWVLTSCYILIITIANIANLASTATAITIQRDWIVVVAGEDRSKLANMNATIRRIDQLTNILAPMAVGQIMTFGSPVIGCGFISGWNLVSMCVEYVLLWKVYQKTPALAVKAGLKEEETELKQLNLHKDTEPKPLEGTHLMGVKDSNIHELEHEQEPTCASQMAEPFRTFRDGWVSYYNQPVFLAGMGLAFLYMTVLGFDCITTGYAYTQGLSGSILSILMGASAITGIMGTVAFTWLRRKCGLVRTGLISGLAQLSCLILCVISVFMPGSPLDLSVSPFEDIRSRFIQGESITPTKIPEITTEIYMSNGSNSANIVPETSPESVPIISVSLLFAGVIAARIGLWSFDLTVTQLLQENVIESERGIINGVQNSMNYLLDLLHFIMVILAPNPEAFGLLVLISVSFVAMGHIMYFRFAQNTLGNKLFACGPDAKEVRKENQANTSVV
UniProt O95391: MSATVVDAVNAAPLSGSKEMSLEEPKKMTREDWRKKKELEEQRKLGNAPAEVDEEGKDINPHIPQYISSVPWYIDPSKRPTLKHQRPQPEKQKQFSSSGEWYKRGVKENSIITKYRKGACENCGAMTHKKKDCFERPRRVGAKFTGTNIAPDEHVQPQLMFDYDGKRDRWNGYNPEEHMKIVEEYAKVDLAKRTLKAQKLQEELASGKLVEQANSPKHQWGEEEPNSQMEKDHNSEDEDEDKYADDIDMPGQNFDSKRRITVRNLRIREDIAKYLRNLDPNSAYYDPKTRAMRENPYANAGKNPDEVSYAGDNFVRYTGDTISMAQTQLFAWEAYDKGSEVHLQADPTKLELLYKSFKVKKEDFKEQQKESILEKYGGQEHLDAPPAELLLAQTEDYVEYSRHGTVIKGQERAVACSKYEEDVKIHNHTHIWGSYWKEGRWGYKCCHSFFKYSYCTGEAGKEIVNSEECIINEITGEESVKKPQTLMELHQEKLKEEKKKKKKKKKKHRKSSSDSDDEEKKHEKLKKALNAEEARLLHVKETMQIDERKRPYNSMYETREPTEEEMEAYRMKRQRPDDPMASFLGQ
UniProt P84022, whole entry, looked up: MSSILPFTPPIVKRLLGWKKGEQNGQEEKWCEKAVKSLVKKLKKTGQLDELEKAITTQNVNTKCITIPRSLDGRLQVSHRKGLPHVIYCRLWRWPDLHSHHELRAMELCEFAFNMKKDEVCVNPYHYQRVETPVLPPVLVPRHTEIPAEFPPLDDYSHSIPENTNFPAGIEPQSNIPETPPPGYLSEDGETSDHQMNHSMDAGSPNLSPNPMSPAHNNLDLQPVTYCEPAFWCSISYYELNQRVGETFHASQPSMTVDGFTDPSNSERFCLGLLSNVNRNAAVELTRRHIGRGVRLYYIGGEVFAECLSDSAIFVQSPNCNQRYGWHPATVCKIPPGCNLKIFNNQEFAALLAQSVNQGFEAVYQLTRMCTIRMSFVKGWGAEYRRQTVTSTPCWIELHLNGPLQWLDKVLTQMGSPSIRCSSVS
UniProt Q13433: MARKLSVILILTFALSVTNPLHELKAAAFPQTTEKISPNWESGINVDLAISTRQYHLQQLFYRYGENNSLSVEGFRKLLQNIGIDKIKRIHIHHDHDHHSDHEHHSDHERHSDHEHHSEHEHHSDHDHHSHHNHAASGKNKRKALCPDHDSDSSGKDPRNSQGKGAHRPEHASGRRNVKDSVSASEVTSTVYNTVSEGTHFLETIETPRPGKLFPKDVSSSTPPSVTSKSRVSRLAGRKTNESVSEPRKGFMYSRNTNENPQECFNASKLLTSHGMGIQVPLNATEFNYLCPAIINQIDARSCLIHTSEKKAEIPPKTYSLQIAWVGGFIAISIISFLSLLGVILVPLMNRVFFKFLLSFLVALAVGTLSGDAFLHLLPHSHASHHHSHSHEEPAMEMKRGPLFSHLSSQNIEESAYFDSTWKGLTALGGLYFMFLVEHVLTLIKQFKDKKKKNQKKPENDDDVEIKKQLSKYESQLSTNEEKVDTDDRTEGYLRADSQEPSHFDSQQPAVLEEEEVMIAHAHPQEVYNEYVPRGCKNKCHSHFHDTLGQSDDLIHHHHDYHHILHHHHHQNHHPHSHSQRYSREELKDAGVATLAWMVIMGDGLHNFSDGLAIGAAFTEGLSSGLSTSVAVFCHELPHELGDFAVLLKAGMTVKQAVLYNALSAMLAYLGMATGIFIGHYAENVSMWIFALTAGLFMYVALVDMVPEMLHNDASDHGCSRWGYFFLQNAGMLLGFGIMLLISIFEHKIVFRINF
UniProt Q0VAQ4: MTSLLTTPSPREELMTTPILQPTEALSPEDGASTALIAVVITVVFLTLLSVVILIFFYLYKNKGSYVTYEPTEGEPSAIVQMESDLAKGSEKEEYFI
UniProt Q96BD0: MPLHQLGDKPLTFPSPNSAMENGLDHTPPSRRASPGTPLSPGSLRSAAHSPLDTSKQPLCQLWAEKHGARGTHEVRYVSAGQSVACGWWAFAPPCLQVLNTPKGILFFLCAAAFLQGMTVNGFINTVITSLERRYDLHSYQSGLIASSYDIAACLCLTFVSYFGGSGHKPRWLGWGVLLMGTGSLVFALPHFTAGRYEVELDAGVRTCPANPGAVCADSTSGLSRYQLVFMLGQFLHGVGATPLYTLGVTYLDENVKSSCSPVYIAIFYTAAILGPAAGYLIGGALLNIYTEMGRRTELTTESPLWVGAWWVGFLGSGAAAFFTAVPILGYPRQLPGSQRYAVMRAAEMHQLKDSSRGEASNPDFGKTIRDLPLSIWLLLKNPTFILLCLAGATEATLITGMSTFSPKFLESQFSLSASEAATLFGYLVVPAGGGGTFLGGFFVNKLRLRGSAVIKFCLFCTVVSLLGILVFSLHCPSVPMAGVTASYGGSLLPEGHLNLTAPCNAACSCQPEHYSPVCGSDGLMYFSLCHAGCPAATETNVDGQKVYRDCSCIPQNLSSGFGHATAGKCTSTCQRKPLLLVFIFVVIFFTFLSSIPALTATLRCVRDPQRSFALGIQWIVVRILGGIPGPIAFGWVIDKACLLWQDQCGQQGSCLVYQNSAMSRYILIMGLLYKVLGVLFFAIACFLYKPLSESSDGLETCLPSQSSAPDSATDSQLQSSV
UniProt P78382: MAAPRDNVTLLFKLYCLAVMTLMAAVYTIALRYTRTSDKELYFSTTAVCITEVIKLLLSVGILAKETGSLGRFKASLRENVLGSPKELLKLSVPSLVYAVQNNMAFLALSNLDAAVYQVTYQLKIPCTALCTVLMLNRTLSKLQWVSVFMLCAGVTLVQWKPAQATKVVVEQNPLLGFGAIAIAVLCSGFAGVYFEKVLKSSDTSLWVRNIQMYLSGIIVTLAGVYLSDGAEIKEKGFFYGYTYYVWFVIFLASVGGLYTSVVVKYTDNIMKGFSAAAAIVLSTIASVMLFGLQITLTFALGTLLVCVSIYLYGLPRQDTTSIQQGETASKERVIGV
UniProt Q9BZD2: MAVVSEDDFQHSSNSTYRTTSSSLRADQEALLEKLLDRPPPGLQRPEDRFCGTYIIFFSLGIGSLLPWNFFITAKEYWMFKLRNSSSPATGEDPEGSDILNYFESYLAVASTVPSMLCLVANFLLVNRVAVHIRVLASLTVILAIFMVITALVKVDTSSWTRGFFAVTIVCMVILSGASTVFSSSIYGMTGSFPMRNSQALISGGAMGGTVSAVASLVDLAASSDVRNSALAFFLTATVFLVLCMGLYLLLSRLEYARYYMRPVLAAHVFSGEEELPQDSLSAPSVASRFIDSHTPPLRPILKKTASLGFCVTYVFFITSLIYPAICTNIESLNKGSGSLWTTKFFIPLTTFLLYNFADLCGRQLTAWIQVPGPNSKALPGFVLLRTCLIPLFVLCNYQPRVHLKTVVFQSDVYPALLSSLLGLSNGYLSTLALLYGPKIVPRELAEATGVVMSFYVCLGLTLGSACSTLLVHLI
UniProt Q8N2U9: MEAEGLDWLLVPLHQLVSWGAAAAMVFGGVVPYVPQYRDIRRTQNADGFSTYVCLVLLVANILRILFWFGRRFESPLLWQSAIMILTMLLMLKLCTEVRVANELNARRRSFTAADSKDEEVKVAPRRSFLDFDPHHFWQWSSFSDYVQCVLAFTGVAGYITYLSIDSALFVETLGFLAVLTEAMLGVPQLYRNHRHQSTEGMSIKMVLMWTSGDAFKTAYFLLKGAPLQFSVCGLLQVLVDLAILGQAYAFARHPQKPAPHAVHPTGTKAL

log2 fold change, inactive:
SLC39A8 (UniProt Q9C0K1) -0.011
SLC25A39 (UniProt Q9BZJ4) -0.035
SLC35B1 isoform 2 (UniProt P78383) 0.019
SLC35A3 isoform 2 (UniProt Q9Y2D2) 0.02
SLC25A16 (UniProt P16260) 0.245
SMAD5 (UniProt Q99717) -0.004
SLC25A36 (UniProt Q96CQ1) 0.081
SLC40A1 (UniProt Q9NP59) 0.009
SLU7 (UniProt O95391) -0.052
SLC41A3 isoform 9 (UniProt Q96GZ6) -0.019
SLC41A1 (UniProt Q8IVJ1) -0.009
SMAD3 (UniProt P84022) -0.002
SLC39A6 (UniProt Q13433) 0.012
SMAGP (UniProt Q0VAQ4) -0.018
SLCO4A1 (UniProt Q96BD0) -0.006
SLC35A1 (UniProt P78382) -0.026
SLC29A3 (UniProt Q9BZD2) 0.075
SLC66A2 (UniProt Q8N2U9) 0.09

Compound: Cc1nc(Nc2n[nH]c3c2CN(C(=O)N[C@H](CN(C)C)c2ccccc2)C3(C)C)c2sccc2n1
Assay: as above
How it was run: as §1

log2 fold change, inactive:
SLC39A8 (UniProt Q9C0K1) 0.065
SLC25A39 (UniProt Q9BZJ4) 0.091
SLC35B1 isoform 2 (UniProt P78383) 0.04
SLC35A3 isoform 2 (UniProt Q9Y2D2) -0.001
SLC25A16 (UniProt P16260) -0.043
SMAD5 (UniProt Q99717) 0.043
SLC25A36 (UniProt Q96CQ1) -0.007
SLC40A1 (UniProt Q9NP59) 0.131
SLU7 (UniProt O95391) 0.045
SLC41A3 isoform 9 (UniProt Q96GZ6) -0.005
SLC41A1 (UniProt Q8IVJ1) 0.012
SMAD3 (UniProt P84022) 0.007
SLC39A6 (UniProt Q13433) 0.018
SMAGP (UniProt Q0VAQ4) 0.05
SLCO4A1 (UniProt Q96BD0) 0.044
SLC35A1 (UniProt P78382) 0.045
SLC29A3 (UniProt Q9BZD2) -0.015
SLC66A2 (UniProt Q8N2U9) 0.005

Compound: Cc1nc(Nc2ncc(C(=O)Nc3c(C)cccc3Cl)s2)cc(N2CCN(CCO)CC2)n1 [dasatinib]
Assay: as above
How it was run: as §1

log2 fold change, inactive:
SLC46A1 (UniProt Q96NT5) 0.091
SLC25A39 (UniProt Q9BZJ4) -0.084
SLX4 (UniProt Q8IY92) -0.038
SLC66A3 (UniProt Q8N755) -0.063
SLC35B1 isoform 2 (UniProt P78383) -0.094
SMAD5 (UniProt Q99717) -0.011
SLC25A36 (UniProt Q96CQ1) 0.012
SLC44A1 (UniProt Q8WWI5) 0.097
SLC40A1 (UniProt Q9NP59) -0.077
SLU7 (UniProt O95391) -0.025
SLC23A2 (UniProt Q9UGH3) -0.001
SMAD3 (UniProt P84022) -0.038
SLC2A13 (UniProt Q96QE2) 0.04
SMAGP (UniProt Q0VAQ4) 0
SLC50A1 (UniProt Q9BRV3) 0.035
SLC25A23 isoform 3 (UniProt Q9BV35) -0.052
SLC8B1 (UniProt Q6J4K2) 0.2
SLC66A2 (UniProt Q8N2U9) 0.053

Compound: Cc1ncc(-c2ccnc(Nc3ccc(S(C)(=O)=O)cc3)n2)n1C(C)C
Assay: as above
How it was run: as §1

log2 fold change, inactive:
SLC39A8 (UniProt Q9C0K1) 0.038
SLC25A39 (UniProt Q9BZJ4) 0.004
SLC35B1 isoform 2 (UniProt P78383) -0.03
SLC35A3 isoform 2 (UniProt Q9Y2D2) -0.049
SLC25A16 (UniProt P16260) 0.056
SMAD5 (UniProt Q99717) 0.031
SLC25A36 (UniProt Q96CQ1) 0.04
SLC40A1 (UniProt Q9NP59) 0.015
SLU7 (UniProt O95391) 0.047
SLC41A3 isoform 9 (UniProt Q96GZ6) 0.039
SLC41A1 (UniProt Q8IVJ1) 0.07
SMAD3 (UniProt P84022) 0
SLC39A6 (UniProt Q13433) 0.038
SMAGP (UniProt Q0VAQ4) 0.161
SLCO4A1 (UniProt Q96BD0) 0.008
SLC35A1 (UniProt P78382) -0.022
SLC29A3 (UniProt Q9BZD2) 0.025
SLC66A2 (UniProt Q8N2U9) -0.097

Reference: the supplement of paper PMC10849652
